Details: healthy human volunteers, single subcutaneous dose 5 mg in sesame oil (10 mg/ml), no benzyl alcohol; FIG. 1

Compound: CN1C(=O)CN=C(c2ccccc2)c2cc(Cl)ccc21 [diazepam]
- time to reach peak concentration in blood: less then one hour
